Some of the results follow. Shown are side measurements of this screen, not its main read-out; they come without a call. Most of these compounds were active or inconclusive in the main read-out, so they are no random draw. Potencies come from curve fits of mixed quality, noted in brackets.

The nature of the experiment: qHTS Assay for Lipid Storage Modulators in Drosophila S3 Cells.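 As to cell number change: cells counted by Cell Tracker Red CMTPX staining in the red channel.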 The note with it: BODIPY lipid droplet fluorescence, 18-24 h; for cell number change: measured here: cell count max response, cells fed with added oleic acid. In outline: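 Drosophila S3 cells loaded with oleic acid (400 uM, as added) and compounds at several concentrations; lipid droplets imaged by 488-nm laser-scanning cytometry, 500–530 nm intensity and object ratio to cell channel. Percent activity normalized to 20 uM Triacsin C.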
In general terms: In qHTS, concentration-response curves come from the screen itself.

Setting [1] is: measured here: lipid fluorescence (Fed channel) AC50, cells fed with added oleic acid.
Setting [2] is: measured here: cell number channel AC50, cells fed with added oleic acid.

A word on the AC50: it is the midpoint of the concentration-response curve, whichever way the signal moves. Turning to `O=C1C(Nc2ccccc2)=C(N2CCCCC2)C(=O)c2ccccc21`, the cell number change is -13.8%. Besides, the half-maximal activity concentration (AC50) under setting [1] was 23.1 µM [falling, single point]. Take `CCCn1nc2cc(C(=O)NC3CCc4ccccc43)ccc2c1OCC` (centres undefined): the AC50 reads like this: under setting [2], 5.8 µM [rising, single point]; under setting [1], 6.51 µM [rising, single point]. As to `O=C(/C=C/c1ccccc1[N+](=O)[O-])N1CCOCC1`, the cell number change worked out at 1.59%. Also, the AC50 under setting [1] was 6.51 µM [rising, single point]. As to `O=C(NNS(=O)(=O)c1ccc(F)cc1)c1cc(Cl)ccc1O`, the cell number change turned out to be 19.3%. The half-maximal activity concentration (AC50) under setting [1] is 29.1 µM [rising, single point]. For the molecule `COC(=O)c1cn(CC(=O)Nc2ccc(F)cc2)c2ccccc12`, the cell number change amounted to 42.9%. Moreover, the AC50 under setting [2] is 20.6 µM [rising, single point]. Further, the AC50 under setting [1] was 7.31 µM [falling, single point]. As to `CN(C)CC(O)COC(c1ccc(Cl)cc1)c1ccc(Cl)cc1` (centres undefined), the cell number change was 36.2%. Turning to `COc1ccc(OCC(=O)N/N=C2\CCc3ccccc32)cc1`, the AC50 is, setting by setting: under setting [2], 2.06 µM [rising, partial curve]; under setting [1], 29.1 µM [rising, single point]. As for `CC(C)CCn1c(NCCN(C)C)nc2c1c(=O)[nH]c(=O)n2C`, the cell number change was -0.993%. Under setting [1], the concentration at half-maximal activity (AC50) is 0.82 µM [falling, full curve, poor fit].

On to `Cc1nc2ncc(Br)cc2[nH]1`, for which the cell number change came to 27.6%. Besides, the half-maximal activity concentration (AC50) under setting [2] was 3.66 µM [rising, full curve, poor fit]. Under setting [1], the concentration at half-maximal activity (AC50) is 3.66 µM [rising, full curve, poor fit]. As for `CC(=O)c1cccc(Nc2nc(-c3cccc([N+](=O)[O-])c3)cs2)c1`, the AC50 is, setting by setting: under setting [2], 1.46 µM [rising, partial curve]; under setting [1], 1.46 µM [rising, partial curve]. As for `CC(Oc1ccccc1Cl)C(=O)Nc1ccc(S(=O)(=O)Nc2nccs2)cc1` (centres undefined), the cell number change came to 57.8%. Moreover, under setting [2], the concentration at half-maximal activity (AC50) is 9.2 µM [rising, partial curve].

With `Cc1cccc(N2CCN(C(=O)CCCn3c(=O)c4cccn4c4cccnc43)CC2)c1C`, the AC50 under setting [1] was 0.58 µM [rising, single point]. Same read-out and setting: in the case of `Cc1ccc(C)c(CN2CCCN(Cc3cc(C)ccc3C)S2(=O)=O)c1` it was 1.64 µM [rising, full curve]. In the case of `O=C(N/N=C/c1ccco1)c1ccc(C(=O)N/N=C/c2ccco2)o1`, the cell number change was -14.2%. In the case of `CCOC(=O)C(=O)Nc1ccccc1C(N)=O`, the cell number change is -32.6%. Besides, the AC50 under setting [2] is 1.64 µM [falling, full curve]. Besides, the AC50 under setting [1] is 0.116 µM [falling, full curve, poor fit]. Take `O=C(CSc1nnc(Cc2ccccc2)n1-c1ccccc1)NNC(=O)Cc1ccccc1`: the cell number change was -93.7%. For the same molecule, the AC50 under setting [2] is 16.4 µM [falling, partial curve]. Also, the AC50 under setting [1] is 0.231 µM [falling, partial curve].

On to `Cc1cc(NC(=O)CSc2nc3c(C)cccc3cc2C#N)no1`, for which the cell number change amounted to 146%. Moreover, under setting [2], the concentration at half-maximal activity (AC50) was 25.9 µM [rising, single point]. As for `CCN(CC)CCN(C(=O)/C=C/c1cccs1)c1nc2ccc(C)cc2s1`, the cell number change was -5.01%. Under setting [1], the AC50 is 23.1 µM [falling, single point]. With `C=CC(=O)Nc1sc2c(c1C(N)=O)CCCC2`, the cell number change was -45.9%. For the same molecule, the AC50 under setting [2] was 9.2 µM [falling, partial curve]. Also, under setting [1], the AC50 is 14.6 µM [falling, partial curve]. In the case of `CCCCCCc1ccc(OC(=O)c2ccncc2)cc1`, the cell number change is -20.9%.

On to `COc1cccc(C(=O)COC(=O)c2ccc(NC(C)=O)cc2)c1`, for which the cell number change worked out at 20.2%. In addition, the AC50 under setting [2] is 6.51 µM [falling, single point]. Further, under setting [1], the AC50 was 4.61 µM [falling, full curve]. For `O=C(Nc1nccs1)c1nc[nH]c1C(=O)NCc1ccccc1`, the cell number change stood at 0.339%. Besides, the AC50 under setting [1] was 20.6 µM [rising, single point].

In the case of `CN(C)CCCN(C(=O)C1COc2ccccc2O1)c1nc2cc3c(cc2s1)OCO3` (centres undefined), the cell number change was found to be 3.66%. For the molecule `CC1(C)OC(C)(C)/C(=C/Nc2ccc(O)cc2)C1=O`, the cell number change was -8.2%. Moreover, under setting [1], the AC50 is 32.6 µM [falling, single point].

Regarding `COc1ccc(N2C(=O)CSC2c2ccccc2F)c(OC)c1` (centres undefined), the cell number change was -14.1%. For the same molecule, the AC50 under setting [1] was 29.1 µM [falling, single point].

Consider `Cc1cc(C)c(NC(=O)c2c[nH]c(=S)n2-c2ccc(F)cc2)c(C)c1`, for which the cell number change was -6.43%. For the same molecule, the AC50 under setting [1] is 2.06 µM [falling, single point].

For `O=C1C=C(N(CCO)CCO)C2(CCCCC2)O1`, the cell number change was -23.9%. The concentration at half-maximal activity (AC50) under setting [2] is 1.64 µM [falling, full curve, poor fit]. For the same molecule, the AC50 under setting [1] was 3.66 µM [falling, full curve]. `O=C(CSc1nccn1Cc1ccco1)Nc1ccccc1F`: the cell number change was 33.7%. Further, under setting [2], the concentration at half-maximal activity (AC50) is 11.2 µM [rising, partial curve, poor fit]. For the same molecule, the AC50 under setting [1] is 3.98 µM [rising, full curve, poor fit]. For the molecule `CC1(NC(=O)CC(c2ccccc2)(c2ccccc2)c2ccccc2)CCN(CCCc2ccccc2)C1=O` (centres undefined), the cell number change was -61.7%. The AC50 under setting [2] was 29.1 µM [falling, single point]. For `CCOC(=O)c1c(CN2CCCCC2)n(C)c2ccc(OC)c(S(=O)(=O)c3ccccc3)c12`, the cell number change is -15.7%. `CC(Nc1nc(N2CCCC2)nc2ccccc12)c1ccccc1` (centres undefined): the AC50 reads like this: under setting [2], 1.84 µM [rising, partial curve]; under setting [1], 0.411 µM [rising, full curve]. Take `Cc1ccc(C(=O)Nc2nnc(-c3ccco3)o2)cc1C`: the cell number change is -11%. For the same molecule, the concentration at half-maximal activity (AC50) under setting [1] was 10.3 µM [falling, partial curve].

As to `O=c1cc(NC2CCCCC2)c2ccccc2o1`, the cell number change came to 12.9%. Under setting [1], the AC50 was 29.1 µM [rising, single point]. Take `CC(=O)n1nc(-c2ccccc2)nc1NCc1ccc(F)cc1`: the cell number change is -13.2%.

In the case of `Cc1cc([N+](=O)[O-])ccc1NC(=S)NC(=O)Cc1ccccc1`, the cell number change is -6.62%. Take `FC(F)(F)c1ccc(-c2nc(=S)[nH][nH]2)cc1`: the cell number change is -50%. Also, the concentration at half-maximal activity (AC50) under setting [2] is 0.164 µM [falling, full curve, poor fit]. Consider `COc1ccc(S(=O)(=O)NCc2ccc3c(c2)OCO3)cc1C`, for which the cell number change was 40.1%. Also, under setting [2], the AC50 is 29.1 µM [rising, single point]. Besides, the concentration at half-maximal activity (AC50) under setting [1] was 29.1 µM [rising, single point].

Turning to `COc1cc2c(cc1NC(=O)CN(C)Cc1nc3ccccc3c(=O)[nH]1)oc1ccccc12`, the cell number change was -19.9%.

In the case of `CCOc1ccc(NC(=O)C2CCCN2S(=O)(=O)c2ccc(OCC)cc2)cc1` (centres undefined), the AC50 under setting [1] was 0.731 µM [falling, full curve].

Turning to `O=C(Nc1ccc(N2CCN(C(=O)c3cccs3)CC2)cc1)c1ccccc1Cl`, the cell number change is -4.5%. As for `O=[N+]([O-])c1cccc(COc2ncnc3cc([N+](=O)[O-])ccc23)c1`, the cell number change amounted to 12%. The AC50 under setting [2] is 0.00461 µM [rising, full curve, poor fit].

With `CCCCOC(=O)Nc1nc(C)c(C(=O)OCC)s1`, under setting [1], the concentration at half-maximal activity (AC50) was 2.59 µM [rising, partial curve]. Turning to `CC(C)CCNC(=O)C1CCCN(S(=O)(=O)c2ccc3c(c2)CC(C)N3C(=O)C2CC2)C1` (centres undefined), the cell number change came to 13.1%. The AC50 under setting [1] is 29.1 µM [rising, single point]. With `CCOC(=O)c1ccc(NC(=O)Nc2ncccc2C)cc1`, the cell number change amounted to 18%. On to `Cc1cccn2c(CNCC3OCCc4ccccc43)c(C(=O)N3CCCCC3)nc12` (centres undefined), for which the cell number change amounted to 31.3%. Further, the AC50 under setting [2] was 0.517 µM [rising, partial curve, poor fit]. Further, the AC50 under setting [1] was 18.4 µM [rising, partial curve, poor fit].

Regarding `Cc1cc(C)cc(OCC(=O)N(Cc2ccco2)c2c(N)n(Cc3ccccc3)c(=O)[nH]c2=O)c1`, the cell number change is -2.74%. The half-maximal activity concentration (AC50) under setting [1] is 0.00461 µM [rising, full curve, poor fit]. In the case of `CC(C)NC(=S)NNC(=O)C12CC3CC(CC(C3)C1)C2`, under setting [2], the concentration at half-maximal activity (AC50) is 0.184 µM [falling, full curve]. For the molecule `CC(NC(=O)c1cc(-c2cccnc2)nc2ccc(Br)cc12)C1CCCO1` (centres undefined), the cell number change is -26.4%. Take `Cc1ccc(C)c(NC(=O)C2CC3c4ccccc4C2c2ccccc23)c1` (centres undefined): the AC50 under setting [1] was 3.66 µM [falling, partial curve]. `Cc1ccccc1NC(=O)N1CCCC(c2nc(-c3ccc(C(C)C)cc3)no2)C1` (centres undefined): the cell number change is -18.5%. Also, the AC50 under setting [2] was 1.64 µM [rising, partial curve]. In addition, the concentration at half-maximal activity (AC50) under setting [1] is 2.06 µM [rising, partial curve]. In the case of `Cc1cccc(-[n+]2c(-c3cccc(Br)c3)[nH]c3nc4ccccc4nc32)c1`, the cell number change was 15.5%. Moreover, the AC50 under setting [2] is 4.61 µM [rising, partial curve]. Also, the AC50 under setting [1] was 5.17 µM [rising, single point]. Consider `COc1ccc(N2CCn3c2nc2c3c(=O)n(CCc3ccccc3)c(=O)n2C)c(OC)c1`, for which the cell number change is 3.96%. Under setting [2], the AC50 was 0.00731 µM [rising, full curve]. Moreover, under setting [1], the AC50 is 0.259 µM [rising, partial curve, poor fit]. As to `CCOC(=O)N1CCN(C(=O)c2cccc(S(=O)(=O)Nc3ccc(Br)cc3)c2)CC1`, the cell number change is -25%. Take `Cc1ccccc1OCC(O)Cn1c(NCc2ccco2)nc2c1c(=O)n(C)c(=O)n2C` (centres undefined): the cell number change is -30.9%. Also, the AC50 under setting [2] was 16.4 µM [falling, partial curve, poor fit]. For the same molecule, the AC50 under setting [1] is 29.1 µM [falling, single point]. `Cc1ccc(CNC(=O)COC(=O)c2ccc(S(=O)(=O)N(C)C)cc2)cc1`: the cell number change stood at 18.7%. In addition, the AC50 under setting [2] is 2.91 µM [rising, single point]. In addition, under setting [1], the AC50 is 2.06 µM [rising, single point]. Consider `Cc1onc(-c2ccccc2)c1C(=O)Nc1nc(-c2ccccc2)cs1`, for which the cell number change worked out at 16.6%. Consider `Cc1ccc(CSc2ccc(-c3ccco3)nn2)cc1`, for which the cell number change was -7.22%. The AC50 under setting [1] is 0.82 µM [rising, single point]. As to `Cc1cc(Cl)c(S(=O)(=O)NCc2cccnc2)cc1OCC(N)=O`, the concentration at half-maximal activity (AC50) is 3.26 µM [rising, single point] under setting [2] and 4.11 µM [rising, partial curve] under setting [1].

With `N#C/C(C(=S)Nc1ccccc1)=C1/NN=C(N2CCOCC2)N1c1ccccc1`, the cell number change was 39.5%. Besides, the AC50 under setting [2] is 14.6 µM [rising, single point].
